# Data from patent US20190119645A1, “GENERATION OF ADULT-LIKE HEART MUSCLE FROM HUMAN PLURIPOTENT STEM CELLS” (The Johns Hopkins University, priority 2015, published 2019).
# At least one compound was matched to its structure with a doubt left.
# System: hiPSC-derived neurons
# Assay: Patch-clamp recording of spontaneous synaptic events in hiPSC-derived neurons
# Assay type: cell-based, human
# Conditions: 20 μM; hiPSC-derived neurons in slices and in cultures; applied with CNQX
# Method: Transverse brain slices of 350 μm thickness were prepared at 8 weeks after differentiated hiPSC cells injection using a vibratome (Leica VT1200S). Slices were incubated in artificial cerebrospinal fluid (ACSF) containing (in mM): NaCl 125, KCl 2.5, MgSO4 1, NaH2PO4 1.25, NaHCO3 26, CaCl2 2, and D-glucose 10. Slices were maintained in ACSF and continuously bubbled with 95% O2 and 5% CO2, first at 34° C. for 30 min, and then at room temperature. A single slice was transferred into a submerged recording chamber and perfused constantly with carbogen-equilibrated ACSF at a rate of 2 ml/min Injected human neurons expressing RFP were visualized under a 40× water immersion objective by fluorescence and DIC optics (Carl Zeiss, Germany). […] Resting membrane potential (RMP) was recorded in current clamp mode at 0 pA immediately after establishing whole-cell configuration. Series resistance (Rseries) and input resistance (Rin) were calculated from a 5 mV pulse and monitored throughout the experiment. […]
# For voltageclamp experiments, the membrane potential was typically held at −70 mV. […] Data were acquired by PatchMaster software (HEKA Elektronik, Lambrech, Germany) Na^+ and K^+ currents and action potentials were analyzed using Clampfit 10.5 software (Molecular devices, Palo Alto, Calif., USA). Spontaneous synaptic events were analyzed using MiniAnalysis software (Synaptosoft, Decatur, Ga., USA). […]
structure (smiles),measurement,value
"CN1CCc2cc3c(cc2[C@H]1[C@@H]1OC(=O)c2c1ccc1c2OCO1)OCO3 [Bic, Bicuculline]",spontaneous synaptic events,blocked
